{
  "source": "patent US8436049B2",
  "about": "“Uses of pentamidine and related compounds” (State of Oregon Acting By and Through the State Board of …, priority 2008, dated 2013)",
  "molecular_target": "T1, MBNL-CUG RNA complex (Homo sapiens, UniProt Q9NR56)",
  "T1 construct": "Both the full length MBNL and MBNL (1-260) constructs were cloned using BamHI and NotI restriction sites; GST (N, cleaved yes); made in house; host or cells: E. coli BL21-Star",
  "T1 sequence (Q9NR56 1-382 isoform Q9NR56-5)": "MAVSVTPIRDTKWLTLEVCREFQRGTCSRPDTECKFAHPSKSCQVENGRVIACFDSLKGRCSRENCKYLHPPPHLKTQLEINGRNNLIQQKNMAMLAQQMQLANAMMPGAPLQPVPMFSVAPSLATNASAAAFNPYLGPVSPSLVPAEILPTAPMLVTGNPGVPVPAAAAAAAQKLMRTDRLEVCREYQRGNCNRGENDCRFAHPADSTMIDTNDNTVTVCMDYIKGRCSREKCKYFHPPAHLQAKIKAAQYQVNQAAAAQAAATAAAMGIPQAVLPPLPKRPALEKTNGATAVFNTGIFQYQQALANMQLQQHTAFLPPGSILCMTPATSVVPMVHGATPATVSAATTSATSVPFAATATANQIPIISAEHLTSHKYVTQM",
  "assay": "Gel shift assay, disruption of MBNL binding to short CUG repeat RNA",
  "settings": "gel shift screen, increasing amounts of small molecule",
  "description": "MBNL1 (MBNL) was PCR amplified and was cloned into GST fusion vector pGEX-6P-1 (GE Healthcare, Piscataway, N.J.), using DNA encoding a MBNL isoform with amino acids 1-382). Both the full length MBNL and MBNL (1-260) constructs were cloned using BamHI and NotI restriction sites. Using BL21-Star expression cells (Invitrogen, Carlsbad, Calif.), protein expression was induced with 0.25 mM IPTG at an OD600 of about 0.5-1, for 3-4 hours at 37° C. Cells were lysed in 30 ml of buffer (500 mM NaCl, 25 mM Tris pH 7.5, 10 mM β-mercaptoethanol (BME) and 5% glycerol) using 1 mg/ml of lysozyme, followed by sonication (3×30 seconds). Cell extract was centrifuged for 15 minutes at 17,000 rpm, and lysate which contained GST-MBNL was collected. GST-MBNL was bound to GST affinity beads for 30 minutes at 4° C. […] The protein was then run over an anion exchange (Q) column. […]\nFor binding curves, gels were quantified using ImageQuant® software (Molecular Dynamics, Piscataway, N.J.). The percent RNA bound was determined by taking the ratio of RNA-protein complex to total RNA, per lane. […] Binding curves were graphed using KaleidaGraph software (Synergy Software, Reading, Pa.). For the neomycin B and CUG8 gel shift, the apparent Kd was determined using Equation 1, where Y=fraction bound, m0=small molecule concentration, m1=total RNA concentration, and m2=Kd. […]",
  "note": "For at least one compound, name, drawing or mass did not settle the structure.",
  "data": [
    {"smiles": "CC[n+]1c(-c2ccccc2)c2cc(N)ccc2c2ccc(N)cc21", "note": "[ethidium bromide]", "values": [
      {"measurement": "Disruption of the MBNL-CUG interaction", "result": "disrupt the MBNL-CUG interaction at micromolar concentrations"}
    ]}
  ]
}
